Measured values taken from PMC5534433.

Chains of the proteins cited; added tags and fusions are not shown. Lines headed by an entry give the natural chain unless they say otherwise; changes in a name come on top.
UniProt P53137: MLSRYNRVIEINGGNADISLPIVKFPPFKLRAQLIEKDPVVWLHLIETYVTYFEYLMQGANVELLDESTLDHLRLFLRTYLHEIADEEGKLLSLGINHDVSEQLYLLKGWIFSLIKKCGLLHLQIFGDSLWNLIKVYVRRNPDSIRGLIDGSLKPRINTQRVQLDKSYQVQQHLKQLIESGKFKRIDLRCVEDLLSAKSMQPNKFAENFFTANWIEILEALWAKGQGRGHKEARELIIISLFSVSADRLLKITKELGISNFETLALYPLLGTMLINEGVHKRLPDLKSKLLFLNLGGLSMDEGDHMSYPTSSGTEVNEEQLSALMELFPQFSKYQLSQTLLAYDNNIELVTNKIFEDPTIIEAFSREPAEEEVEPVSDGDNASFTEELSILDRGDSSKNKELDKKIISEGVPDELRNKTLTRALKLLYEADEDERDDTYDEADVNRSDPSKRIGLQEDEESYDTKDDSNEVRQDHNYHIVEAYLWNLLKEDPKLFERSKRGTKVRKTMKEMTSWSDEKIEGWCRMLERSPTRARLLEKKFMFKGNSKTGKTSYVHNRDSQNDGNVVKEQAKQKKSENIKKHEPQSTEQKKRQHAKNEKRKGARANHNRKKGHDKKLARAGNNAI

Target: T1, C-terminal FLAG-TEV-ProtA-tagged Rqt1 (Hel2) (S. cerevisiae) (UniProt Q05580)
T1 sequence: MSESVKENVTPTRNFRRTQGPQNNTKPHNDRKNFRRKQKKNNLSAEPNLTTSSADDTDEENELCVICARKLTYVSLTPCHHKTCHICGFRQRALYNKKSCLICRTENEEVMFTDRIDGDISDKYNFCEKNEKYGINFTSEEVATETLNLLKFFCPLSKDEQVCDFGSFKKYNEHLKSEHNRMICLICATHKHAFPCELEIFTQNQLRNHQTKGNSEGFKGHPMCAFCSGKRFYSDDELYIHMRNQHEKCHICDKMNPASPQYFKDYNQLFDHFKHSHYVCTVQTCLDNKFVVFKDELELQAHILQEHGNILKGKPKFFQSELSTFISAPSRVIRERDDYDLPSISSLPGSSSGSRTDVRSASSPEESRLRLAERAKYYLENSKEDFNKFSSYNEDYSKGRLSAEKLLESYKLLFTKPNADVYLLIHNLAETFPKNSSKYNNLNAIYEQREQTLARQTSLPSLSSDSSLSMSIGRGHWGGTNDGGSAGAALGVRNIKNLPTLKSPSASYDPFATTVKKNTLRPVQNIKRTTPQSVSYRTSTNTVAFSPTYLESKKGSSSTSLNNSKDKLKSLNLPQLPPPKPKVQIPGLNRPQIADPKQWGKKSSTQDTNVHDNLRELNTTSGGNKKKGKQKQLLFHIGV
Experiment: co-IP; Rqt1-ribosome complex purified from Rqt3-Ub-m mutant cells (Fig. 3d); how the partners were detected is not told

binding: binds
Substance: Rqt3-Ub-m (Rqt3 with mutations in the ubiquitin-binding CUE domain, in yeast cells) (from UniProt P53137)

No constants are given. Whether binding was seen depends on the method and setting. Binding seen in cells or lysates may run through a third protein. Binding calls can cover weak binding; strength is not graded here. Sequences can lack the tags named with a protein.
